Data as given in PubChem BioAssay AID720710 (VTT Finland, 2013)
Assay: 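Knock-downs that leave cyclin E-high cells sensitive to replication stress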 (primary screen). Cells: human U-2 OS bone cancer cells, parental and a cyclin E (CCNE1) overexpressing line. Knock-down reagent: single siRNA against human genes, 1 µM siRNA in the printed spot mix. Duration: 67 h. Conditions: half the arrays: hydroxyurea 2 mM for 16 h, then 3 h recovery; other arrays untreated. Read-out: 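EdU click signal imaged per DAPI-stained nucleus at 67 h; each spot divided by its subgrid median, then z-scored relative to non-targeting control spots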. Scale: EdU z-score, cyclin E line, hydroxyurea: higher = more DNA synthesis than non-targeting controls.
Shown is an unselected part of about 1,380 reagents. 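One array per condition without replicates; hydroxyurea arrays received 2 mM for 16 h plus 3 h recovery.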 Reagents against one gene are numbered here. Not all columns of the deposit are shown.

The first 4 records, ahead of the listing:
ATMIN (ATM interactor) #1 — EdU z-score, cyclin E line, hydroxyurea = 0.0665
ATMIN (ATM interactor) #2 — EdU z-score, cyclin E line, hydroxyurea = 0.73
LOC648152 #1 — EdU z-score, cyclin E line, hydroxyurea = -0.219
LOC648152 #2 — EdU z-score, cyclin E line, hydroxyurea = -0.155

The listing, from the first entry:
ATMIN (ATM interactor) #1 — EdU z-score, cyclin E line, hydroxyurea = 0.0665
ATMIN (ATM interactor) #2 — EdU z-score, cyclin E line, hydroxyurea = 0.73
LOC648152 #1 — EdU z-score, cyclin E line, hydroxyurea = -0.219
LOC648152 #2 — EdU z-score, cyclin E line, hydroxyurea = -0.155
LOC730278 #1 — EdU z-score, cyclin E line, hydroxyurea = -1.33
LOC730278 #2 — EdU z-score, cyclin E line, hydroxyurea = -1.22
DNA2 (DNA replication helicase/nuclease 2) #1 — EdU z-score, cyclin E line, hydroxyurea = -1.21
DNA2 (DNA replication helicase/nuclease 2) #2 — EdU z-score, cyclin E line, hydroxyurea = 0.895
LOC646359 #1 — EdU z-score, cyclin E line, hydroxyurea = -2.06
LOC646359 #2 — EdU z-score, cyclin E line, hydroxyurea = 1.09
TEP1 (telomerase associated protein 1) #1 — EdU z-score, cyclin E line, hydroxyurea = -0.837
TEP1 (telomerase associated protein 1) #2 — EdU z-score, cyclin E line, hydroxyurea = 1.94
VCP (valosin containing protein) #1 — EdU z-score, cyclin E line, hydroxyurea = -1.27
VCP (valosin containing protein) #2 — EdU z-score, cyclin E line, hydroxyurea = 0.0471
FANCD2 (FA complementation group D2) #1 — EdU z-score, cyclin E line, hydroxyurea = -0.76
FANCD2 (FA complementation group D2) #2 — EdU z-score, cyclin E line, hydroxyurea = 1.01
DUT (deoxyuridine triphosphatase) #1 — EdU z-score, cyclin E line, hydroxyurea = 0.717
DUT (deoxyuridine triphosphatase) #2 — EdU z-score, cyclin E line, hydroxyurea = 0.737
MTA2 (metastasis associated 1 family member 2) #1 — EdU z-score, cyclin E line, hydroxyurea = -2.86
MTA2 (metastasis associated 1 family member 2) #2 — EdU z-score, cyclin E line, hydroxyurea = -0.0689
SIRT7 (sirtuin 7) #1 — EdU z-score, cyclin E line, hydroxyurea = -1.89
SIRT7 (sirtuin 7) #2 — EdU z-score, cyclin E line, hydroxyurea = -1.57
RAD51C (RAD51 paralog C) #1 — EdU z-score, cyclin E line, hydroxyurea = 1.18
RAD51C (RAD51 paralog C) #2 — EdU z-score, cyclin E line, hydroxyurea = 2.08
PRIMPOL (primase and DNA directed polymerase) #1 — EdU z-score, cyclin E line, hydroxyurea = -1.08
PRIMPOL (primase and DNA directed polymerase) #2 — EdU z-score, cyclin E line, hydroxyurea = -0.261
ORC1 (origin recognition complex subunit 1) #1 — EdU z-score, cyclin E line, hydroxyurea = -0.161
ORC1 (origin recognition complex subunit 1) #2 — EdU z-score, cyclin E line, hydroxyurea = -0.151
MCM10 (minichromosome maintenance 10 replication initiation factor) #1 — EdU z-score, cyclin E line, hydroxyurea = -0.908
MCM10 (minichromosome maintenance 10 replication initiation factor) #2 — EdU z-score, cyclin E line, hydroxyurea = 1.31
SOX21 (SRY-box transcription factor 21) #1 — EdU z-score, cyclin E line, hydroxyurea = -1.05
SOX21 (SRY-box transcription factor 21) #2 — EdU z-score, cyclin E line, hydroxyurea = -0.604
